Measurements taken from the supplement of paper PMC10849652.
Some of the results follow.

Amino acid sequences for entries named in this document (tags omitted). A change or cut given only in a name is not applied to a line headed by its entry.
UniProt Q12893: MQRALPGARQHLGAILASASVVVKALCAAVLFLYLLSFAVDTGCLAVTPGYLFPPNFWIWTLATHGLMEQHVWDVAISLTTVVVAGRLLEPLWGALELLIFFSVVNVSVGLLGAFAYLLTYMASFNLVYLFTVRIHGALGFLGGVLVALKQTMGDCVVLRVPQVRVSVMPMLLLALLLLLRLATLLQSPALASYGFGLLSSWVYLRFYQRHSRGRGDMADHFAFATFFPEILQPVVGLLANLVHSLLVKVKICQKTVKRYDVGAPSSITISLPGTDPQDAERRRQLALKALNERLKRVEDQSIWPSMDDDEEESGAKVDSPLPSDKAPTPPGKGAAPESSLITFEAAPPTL
UniProt P49755: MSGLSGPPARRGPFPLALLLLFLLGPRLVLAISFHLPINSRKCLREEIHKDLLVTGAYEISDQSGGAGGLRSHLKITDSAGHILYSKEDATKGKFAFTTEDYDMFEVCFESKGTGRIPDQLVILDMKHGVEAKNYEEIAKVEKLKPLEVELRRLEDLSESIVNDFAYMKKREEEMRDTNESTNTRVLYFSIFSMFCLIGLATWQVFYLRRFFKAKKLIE
UniProt Q9NZR1: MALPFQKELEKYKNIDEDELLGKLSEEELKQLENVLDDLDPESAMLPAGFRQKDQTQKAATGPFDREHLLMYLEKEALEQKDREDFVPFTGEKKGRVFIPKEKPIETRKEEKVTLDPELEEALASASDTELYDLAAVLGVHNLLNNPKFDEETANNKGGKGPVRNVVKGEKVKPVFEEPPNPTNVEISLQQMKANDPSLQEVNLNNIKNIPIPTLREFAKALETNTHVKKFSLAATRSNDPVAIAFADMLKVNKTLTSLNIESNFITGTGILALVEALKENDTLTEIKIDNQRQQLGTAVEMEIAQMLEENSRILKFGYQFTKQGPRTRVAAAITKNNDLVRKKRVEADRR
UniProt P57088: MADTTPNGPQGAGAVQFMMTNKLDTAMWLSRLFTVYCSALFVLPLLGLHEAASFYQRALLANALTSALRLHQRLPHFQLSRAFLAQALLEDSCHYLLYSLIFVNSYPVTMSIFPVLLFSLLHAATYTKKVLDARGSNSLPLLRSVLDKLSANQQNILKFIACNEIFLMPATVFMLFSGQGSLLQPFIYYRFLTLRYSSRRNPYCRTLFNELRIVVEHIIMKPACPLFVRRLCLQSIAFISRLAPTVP
UniProt Q6PI78: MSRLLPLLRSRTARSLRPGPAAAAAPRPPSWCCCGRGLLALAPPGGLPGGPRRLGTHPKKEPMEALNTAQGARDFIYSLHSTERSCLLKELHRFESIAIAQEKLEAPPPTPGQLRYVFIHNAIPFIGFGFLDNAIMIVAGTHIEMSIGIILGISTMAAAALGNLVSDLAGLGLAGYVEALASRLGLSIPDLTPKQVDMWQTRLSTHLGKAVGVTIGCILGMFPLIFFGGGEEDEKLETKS
UniProt Q5BJF2, whole entry, looked up: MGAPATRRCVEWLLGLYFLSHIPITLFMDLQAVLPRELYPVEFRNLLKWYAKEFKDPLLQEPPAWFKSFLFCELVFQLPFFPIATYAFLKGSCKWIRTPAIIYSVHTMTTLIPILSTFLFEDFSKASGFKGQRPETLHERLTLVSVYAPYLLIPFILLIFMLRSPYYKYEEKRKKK
UniProt A5PLL7: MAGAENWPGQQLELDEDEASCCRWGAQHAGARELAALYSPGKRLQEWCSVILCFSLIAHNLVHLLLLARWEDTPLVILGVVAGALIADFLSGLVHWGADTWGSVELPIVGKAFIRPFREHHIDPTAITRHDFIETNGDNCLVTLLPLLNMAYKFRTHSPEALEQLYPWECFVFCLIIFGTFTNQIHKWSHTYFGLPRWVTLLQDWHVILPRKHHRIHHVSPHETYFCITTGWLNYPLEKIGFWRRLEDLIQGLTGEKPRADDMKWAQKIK
UniProt Q7Z7H5: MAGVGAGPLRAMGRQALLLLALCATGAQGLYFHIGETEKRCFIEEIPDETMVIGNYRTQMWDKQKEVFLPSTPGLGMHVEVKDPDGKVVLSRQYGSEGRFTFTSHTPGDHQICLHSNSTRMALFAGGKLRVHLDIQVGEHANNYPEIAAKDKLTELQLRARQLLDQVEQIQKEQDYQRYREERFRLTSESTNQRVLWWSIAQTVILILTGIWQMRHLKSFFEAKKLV
UniProt Q9BTV4: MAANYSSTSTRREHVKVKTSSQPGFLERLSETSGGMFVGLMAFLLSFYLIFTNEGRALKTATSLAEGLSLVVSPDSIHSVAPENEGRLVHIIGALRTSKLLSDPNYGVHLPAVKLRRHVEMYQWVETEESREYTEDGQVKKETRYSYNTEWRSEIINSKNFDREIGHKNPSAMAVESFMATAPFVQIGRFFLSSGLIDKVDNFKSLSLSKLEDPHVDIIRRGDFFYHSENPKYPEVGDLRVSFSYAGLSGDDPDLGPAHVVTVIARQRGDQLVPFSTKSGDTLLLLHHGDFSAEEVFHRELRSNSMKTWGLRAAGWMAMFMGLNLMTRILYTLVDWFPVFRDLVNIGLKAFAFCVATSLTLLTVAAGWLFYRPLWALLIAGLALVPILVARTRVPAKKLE
UniProt Q9Y320, whole entry, looked up: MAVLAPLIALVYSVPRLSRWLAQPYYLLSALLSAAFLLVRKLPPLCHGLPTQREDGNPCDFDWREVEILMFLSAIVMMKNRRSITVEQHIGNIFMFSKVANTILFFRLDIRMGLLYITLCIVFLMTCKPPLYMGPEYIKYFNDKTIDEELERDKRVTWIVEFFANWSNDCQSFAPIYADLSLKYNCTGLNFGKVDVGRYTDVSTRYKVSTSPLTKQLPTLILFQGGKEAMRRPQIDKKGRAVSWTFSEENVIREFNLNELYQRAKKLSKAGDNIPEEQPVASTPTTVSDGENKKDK
UniProt Q9NVV0: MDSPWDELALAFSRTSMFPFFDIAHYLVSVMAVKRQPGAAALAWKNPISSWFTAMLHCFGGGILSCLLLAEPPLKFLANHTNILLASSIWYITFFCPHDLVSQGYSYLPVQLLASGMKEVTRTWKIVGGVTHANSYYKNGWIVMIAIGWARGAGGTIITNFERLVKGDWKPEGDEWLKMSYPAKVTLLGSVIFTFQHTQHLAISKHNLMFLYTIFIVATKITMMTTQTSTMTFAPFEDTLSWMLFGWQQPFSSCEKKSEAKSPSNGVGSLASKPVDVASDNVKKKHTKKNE
UniProt Q9Y490: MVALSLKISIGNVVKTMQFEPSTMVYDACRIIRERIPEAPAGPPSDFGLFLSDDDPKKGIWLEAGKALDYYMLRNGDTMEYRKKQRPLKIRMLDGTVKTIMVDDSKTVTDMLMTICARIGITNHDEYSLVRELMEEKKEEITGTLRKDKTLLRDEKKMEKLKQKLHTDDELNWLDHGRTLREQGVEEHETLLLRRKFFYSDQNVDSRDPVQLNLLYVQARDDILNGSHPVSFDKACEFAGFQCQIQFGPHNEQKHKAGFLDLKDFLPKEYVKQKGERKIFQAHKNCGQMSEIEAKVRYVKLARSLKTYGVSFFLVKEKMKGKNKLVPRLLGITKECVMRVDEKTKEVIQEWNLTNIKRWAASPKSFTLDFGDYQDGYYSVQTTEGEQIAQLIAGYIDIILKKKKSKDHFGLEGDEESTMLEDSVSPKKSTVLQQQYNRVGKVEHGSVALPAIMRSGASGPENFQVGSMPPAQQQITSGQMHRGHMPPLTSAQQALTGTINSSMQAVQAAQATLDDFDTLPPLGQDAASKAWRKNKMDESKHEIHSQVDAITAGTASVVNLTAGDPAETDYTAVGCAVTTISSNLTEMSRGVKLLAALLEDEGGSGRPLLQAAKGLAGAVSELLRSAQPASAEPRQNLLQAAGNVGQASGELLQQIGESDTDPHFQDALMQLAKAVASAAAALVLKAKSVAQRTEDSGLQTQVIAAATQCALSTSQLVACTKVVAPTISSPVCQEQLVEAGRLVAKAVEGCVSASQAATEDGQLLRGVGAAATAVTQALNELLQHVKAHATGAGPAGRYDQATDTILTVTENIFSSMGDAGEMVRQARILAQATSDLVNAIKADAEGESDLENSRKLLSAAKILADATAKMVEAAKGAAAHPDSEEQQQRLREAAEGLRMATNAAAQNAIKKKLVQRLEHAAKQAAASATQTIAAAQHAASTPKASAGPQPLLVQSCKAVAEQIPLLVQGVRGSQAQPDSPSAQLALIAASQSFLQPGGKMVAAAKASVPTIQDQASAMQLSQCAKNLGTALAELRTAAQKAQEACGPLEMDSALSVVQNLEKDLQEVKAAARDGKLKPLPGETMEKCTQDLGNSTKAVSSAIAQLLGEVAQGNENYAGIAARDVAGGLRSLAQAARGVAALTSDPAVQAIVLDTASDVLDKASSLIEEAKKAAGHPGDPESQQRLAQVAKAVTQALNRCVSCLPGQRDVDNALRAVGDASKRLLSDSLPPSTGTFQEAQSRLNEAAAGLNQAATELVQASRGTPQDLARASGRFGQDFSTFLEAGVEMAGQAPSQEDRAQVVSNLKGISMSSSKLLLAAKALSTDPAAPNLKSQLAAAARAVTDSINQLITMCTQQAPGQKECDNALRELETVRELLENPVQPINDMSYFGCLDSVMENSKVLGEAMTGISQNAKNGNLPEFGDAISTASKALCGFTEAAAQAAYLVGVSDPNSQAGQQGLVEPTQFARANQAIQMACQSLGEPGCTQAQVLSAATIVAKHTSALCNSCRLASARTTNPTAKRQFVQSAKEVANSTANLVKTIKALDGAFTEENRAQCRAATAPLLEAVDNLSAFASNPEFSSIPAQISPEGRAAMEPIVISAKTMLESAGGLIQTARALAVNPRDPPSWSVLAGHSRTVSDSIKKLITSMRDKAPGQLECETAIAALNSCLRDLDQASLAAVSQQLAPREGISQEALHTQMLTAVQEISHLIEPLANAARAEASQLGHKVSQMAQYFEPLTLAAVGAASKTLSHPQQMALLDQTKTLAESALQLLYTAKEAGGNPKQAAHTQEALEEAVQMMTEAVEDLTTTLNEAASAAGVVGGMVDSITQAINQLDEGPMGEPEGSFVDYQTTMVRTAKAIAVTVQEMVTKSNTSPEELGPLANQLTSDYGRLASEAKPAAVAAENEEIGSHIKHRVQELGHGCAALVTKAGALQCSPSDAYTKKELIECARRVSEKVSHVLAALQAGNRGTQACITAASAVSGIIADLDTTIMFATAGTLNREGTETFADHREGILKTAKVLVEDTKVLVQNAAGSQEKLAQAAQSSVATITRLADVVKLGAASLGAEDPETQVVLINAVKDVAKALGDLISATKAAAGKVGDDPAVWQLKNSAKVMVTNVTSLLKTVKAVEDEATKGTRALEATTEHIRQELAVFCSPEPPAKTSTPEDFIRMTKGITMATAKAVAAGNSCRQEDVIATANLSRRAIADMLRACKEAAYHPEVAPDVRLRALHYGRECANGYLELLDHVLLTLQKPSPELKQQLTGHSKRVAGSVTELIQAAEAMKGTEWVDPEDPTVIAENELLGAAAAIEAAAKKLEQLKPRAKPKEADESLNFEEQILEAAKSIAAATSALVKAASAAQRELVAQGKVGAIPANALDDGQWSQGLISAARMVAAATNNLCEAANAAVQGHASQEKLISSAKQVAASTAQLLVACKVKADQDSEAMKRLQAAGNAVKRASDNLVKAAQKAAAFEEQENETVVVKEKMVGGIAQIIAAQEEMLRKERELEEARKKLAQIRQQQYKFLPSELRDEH
UniProt Q9NX00: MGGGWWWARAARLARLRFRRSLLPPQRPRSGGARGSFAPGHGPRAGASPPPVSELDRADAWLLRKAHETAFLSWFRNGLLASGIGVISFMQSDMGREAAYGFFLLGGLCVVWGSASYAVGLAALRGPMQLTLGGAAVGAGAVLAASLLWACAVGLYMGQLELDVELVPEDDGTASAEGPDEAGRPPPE
UniProt Q9NV96: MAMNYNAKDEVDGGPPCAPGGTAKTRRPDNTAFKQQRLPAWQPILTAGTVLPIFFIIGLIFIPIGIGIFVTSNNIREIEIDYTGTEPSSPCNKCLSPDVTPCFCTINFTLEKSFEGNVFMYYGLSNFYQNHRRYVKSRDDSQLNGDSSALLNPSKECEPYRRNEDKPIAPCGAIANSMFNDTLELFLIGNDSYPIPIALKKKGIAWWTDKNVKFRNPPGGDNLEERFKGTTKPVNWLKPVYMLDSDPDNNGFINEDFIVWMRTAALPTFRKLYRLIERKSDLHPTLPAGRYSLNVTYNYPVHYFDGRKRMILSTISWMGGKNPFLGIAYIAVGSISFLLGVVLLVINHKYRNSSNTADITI
UniProt Q6UW68: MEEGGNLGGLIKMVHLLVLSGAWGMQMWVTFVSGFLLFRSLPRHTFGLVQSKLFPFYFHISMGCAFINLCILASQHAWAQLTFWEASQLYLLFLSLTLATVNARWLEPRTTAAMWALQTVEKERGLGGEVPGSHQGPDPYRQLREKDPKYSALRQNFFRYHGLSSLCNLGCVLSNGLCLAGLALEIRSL
UniProt Q9Y3A6: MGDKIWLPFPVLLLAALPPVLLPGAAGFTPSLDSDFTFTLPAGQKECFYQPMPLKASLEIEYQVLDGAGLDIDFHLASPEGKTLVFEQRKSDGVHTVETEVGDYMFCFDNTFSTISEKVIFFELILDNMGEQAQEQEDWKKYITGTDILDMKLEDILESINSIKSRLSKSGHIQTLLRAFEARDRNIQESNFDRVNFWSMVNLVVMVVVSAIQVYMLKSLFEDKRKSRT

Columns and labels:
Experiment in all cases: log2 fold change, soluble protein after heating vs DMSO (PISA); higher = thermal stabilisation; K562 cells, 10 uM, 30 min; active = over 0.2 and 3.5 SD of the protein, either way, in both replicates (recomputed)
[1] = compound: CS(=O)(=O)c1ccc(-c2cnc(N)c(C(=O)Nc3ccccc3)n2)cc1
Procedure, shortened: (§1)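 Soluble protein was quantified by TMTpro 16plex LC-MS/MS after channel sums were equalised. It was obtained as the supernatant after 21,000xg for 90 min from pooled aliquots of K562 cells (2×10^6 cells/mL, 10 μM compound, 30 min) heated for 3 min across 48°C-58°C and extracted in PBS with 0.5% NP-40 at 4°C. Thermal stability values are relative to control samples and come from duplicates. They are given as log2 fold changes.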

crizotinib = compound: C[C@@H](Oc1cc(-c2cnn(C3CCNCC3)c2)cnc1N)c1c(Cl)ccc(F)c1Cl [crizotinib]
Procedure, shortened: as §1

[2] = compound: C[C@@H]1COCCN1C2=NC(=NC(=C2)C3(CC3)S(=O)(=O)C)C4=C5C=CNC5=CC=C4
Procedure, shortened: as §1

[3] = compound: C[C@H](C1=CC=C(C=C1)C(=O)NC2=C3C=CNC3=NC=C2)N
Procedure, shortened: as §1

duvelisib = compound: C[C@H](Nc1ncnc2nc[nH]c12)c1cc2cccc(Cl)c2c(=O)n1-c1ccccc1 [duvelisib]
Procedure, shortened: as §1

gandotinib = compound: Cc1cc(Nc2cc(CN3CCOCC3)c3nc(C)c(Cc4ccc(Cl)cc4F)n3n2)n[nH]1 [gandotinib]
Procedure, shortened: as §1

tozasertib = compound: Cc1cc(Nc2cc(N3CCN(C)CC3)nc(Sc3ccc(NC(=O)C4CC4)cc3)n2)n[nH]1 [tozasertib]
Procedure, shortened: as §1

[4] = compound: Cc1cc(SCc2sc(-c3ccc(C(F)(F)F)cc3)nc2C)ccc1OCC(=O)O
Procedure, shortened: as §1

doramapimod = compound: Cc1ccc(-n2nc(C(C)(C)C)cc2NC(=O)Nc2ccc(OCCN3CCOCC3)c3ccccc23)cc1 [doramapimod]
Procedure, shortened: as §1

ispinesib = compound: Cc1ccc(C(=O)N(CCCN)[C@@H](c2nc3cc(Cl)ccc3c(=O)n2Cc2ccccc2)C(C)C)cc1 [ispinesib]
Procedure, shortened: as §1

bafetinib = compound: Cc1ccc(NC(=O)c2ccc(CN3CC[C@H](N(C)C)C3)c(C(F)(F)F)c2)cc1Nc1nccc(-c2cncnc2)n1 [bafetinib]
Procedure, shortened: as §1

[5] = compound: Cc1cccc(CC(=O)N2CCc3c2ccc(-c2cn(C)c4ncnc(N)c24)c3F)n1
Procedure, shortened: as §1

nilotinib = compound: Cc1cn(-c2cc(NC(=O)c3ccc(C)c(Nc4nccc(-c5cccnc5)n4)c3)cc(C(F)(F)F)c2)cn1 [nilotinib]
Procedure, shortened: as §1

[6] = compound: Cc1nc(Nc2n[nH]c3c2CN(C(=O)N[C@H](CN(C)C)c2ccccc2)C3(C)C)c2sccc2n1
Procedure, shortened: as §1

dasatinib = compound: Cc1nc(Nc2ncc(C(=O)Nc3c(C)cccc3Cl)s2)cc(N2CCN(CCO)CC2)n1 [dasatinib]
Procedure, shortened: as §1

[7] = compound: Cc1ncc(-c2ccnc(Nc3ccc(S(C)(=O)=O)cc3)n2)n1C(C)C
Procedure, shortened: as §1

[8] = compound: Cn1cc(-c2ccc3c(c2)CCN3C(=O)Cc2cccc(C(F)(F)F)c2)c2c(N)ncnc21
Procedure, shortened: as §1

[9] = compound: Cn1cc(-c2ccc3nnc(C(F)(F)c4ccc5ncccc5c4)n3n2)cn1
Procedure, shortened: as §1

tipifarnib = compound: Cn1cncc1[C@@](N)(c1ccc(Cl)cc1)c1ccc2c(c1)c(-c1cccc(Cl)c1)cc(=O)n2C [tipifarnib]
Procedure, shortened: as §1

mubritinib = compound: FC(F)(F)c1ccc(/C=C/c2nc(COc3ccc(CCCCn4ccnn4)cc3)co2)cc1 [mubritinib]
Procedure, shortened: as §1

Measured: log2 fold change

TMEM115 (UniProt Q12893)
inactive: [1] 0.006 | crizotinib 0.053 | [2] -0.05 | [3] -0.035 | duvelisib -0.018 | gandotinib -0.024 | tozasertib -0.061 | [4] -0.03 | doramapimod -0.019 | ispinesib 0.023 | bafetinib -0.084 | [5] 0.019 | nilotinib 0.017 | [6] 0.027 | dasatinib 0.065 | [7] 0.065 | [8] 0.047 | [9] -0.02 | tipifarnib 0.036 | mubritinib -0.032

TMED10 (UniProt P49755)
inactive: [1] 0.064 | crizotinib 0.039 | [2] 0 | [3] -0.033 | duvelisib 0.018 | gandotinib -0.027 | tozasertib -0.005 | [4] 0.006 | doramapimod -0.008 | ispinesib 0.011 | bafetinib -0.027 | [5] -0.007 | nilotinib 0.027 | [6] -0.002 | dasatinib 0.036 | [7] 0 | [8] 0.082 | [9] -0.019 | tipifarnib -0.036 | mubritinib 0.007

TMOD2 (UniProt Q9NZR1)
inactive: [1] -0.028 | crizotinib 0.12 | [2] 0.154 | [3] -0.042 | duvelisib 0.106 | gandotinib -0.08 | tozasertib 0.17 | [4] -0.052 | doramapimod 0.027 | ispinesib 0.099 | bafetinib 0.049 | [5] 0.121 | nilotinib 0.1 | [6] 0.014 | dasatinib 0.062 | [7] 0.023 | [8] 0.287 | [9] 0.304 | tipifarnib -0.053 | mubritinib -0.071

TMEM33 (UniProt P57088)
inactive: [1] 0.002 | crizotinib 0.041 | [2] 0.104 | [3] -0.117 | duvelisib 0.031 | gandotinib -0.055 | tozasertib 0.031 | [4] -0.021 | doramapimod -0.032 | ispinesib 0.047 | bafetinib -0.024 | [5] 0.016 | nilotinib -0.001 | [6] 0.008 | dasatinib 0.05 | [7] 0.002 | [8] 0.046 | [9] 0.002 | tipifarnib -0.019 | mubritinib 0.027

TMEM65 (UniProt Q6PI78)
inactive: [1] -0.075 | crizotinib 0.036 | [2] 0.267 | [3] -0.07 | duvelisib 0.087 | gandotinib 0.001 | tozasertib 0.029 | [4] -0.042 | doramapimod 0.195 | ispinesib -0.094 | bafetinib -0.014 | [5] -0.022 | nilotinib 0.053 | [6] -0.039 | dasatinib 0.006 | [7] -0.033 | [8] 0.095 | [9] 0.093 | tipifarnib 0.161 | mubritinib 0.05

TMEM97 (UniProt Q5BJF2)
inactive: [1] 0.056 | crizotinib 0.118 | [2] 0.119 | [3] 0.018 | duvelisib 0.015 | gandotinib -0.007 | tozasertib -0.077 | [4] -0.009 | doramapimod 0.004 | ispinesib 0.054 | bafetinib -0.051 | [5] -0.072 | nilotinib -0.02 | [6] 0.048 | dasatinib 0.051 | [7] -0.096 | [8] 0.027 | [9] -0.112 | tipifarnib 0.04 | mubritinib 0.039

TMEM189 (UniProt A5PLL7)
inactive: [1] 0.01 | crizotinib 0.009 | [2] -0.02 | [3] -0.001 | duvelisib 0.137 | gandotinib -0.034 | tozasertib 0.046 | [4] -0.035 | doramapimod -0.08 | ispinesib 0.017 | bafetinib 0.031 | [5] 0.139 | nilotinib -0.075 | [6] 0.014 | dasatinib 0.094 | [7] -0.054 | [8] -0.025 | [9] 0.065 | tipifarnib -0.079 | mubritinib -0.043

TMED4 (UniProt Q7Z7H5)
inactive: [1] 0.018 | crizotinib 0.044 | [2] 0.037 | [3] -0.039 | duvelisib 0.028 | gandotinib 0.018 | tozasertib 0.03 | [4] -0.07 | doramapimod -0.03 | ispinesib 0.062 | bafetinib -0.031 | [5] -0.027 | nilotinib -0.008 | [6] 0.019 | dasatinib 0.052 | [7] 0.009 | [8] 0.102 | [9] 0.066 | tipifarnib -0.043 | mubritinib 0.03

TMEM43 (UniProt Q9BTV4)
inactive: [1] 0.008 | crizotinib 0.031 | [2] -0.065 | [3] 0.048 | duvelisib 0.025 | gandotinib 0.127 | tozasertib 0.013 | [4] 0.022 | doramapimod 0.048 | ispinesib -0.136 | bafetinib -0.029 | [5] 0.019 | nilotinib 0.041 | [6] 0.029 | dasatinib 0.05 | [7] -0.001 | [8] -0.074 | [9] -0.008 | tipifarnib 0.064 | mubritinib -0.059

TMX2 (UniProt Q9Y320)
inactive: [1] 0.006 | crizotinib 0.014 | [2] 0.038 | [3] -0.037 | duvelisib -0.028 | gandotinib -0.061 | tozasertib -0.047 | [4] 0.015 | doramapimod -0.002 | ispinesib -0.082 | bafetinib -0.086 | [5] -0.027 | nilotinib -0.021 | [6] 0.016 | dasatinib -0.002 | [7] -0.037 | [8] 0.026 | [9] 0.008 | tipifarnib 0.045 | mubritinib 0.04

TMEM38B (UniProt Q9NVV0)
inactive: [1] 0.061 | crizotinib -0.062 | [2] 0.05 | [3] -0.135 | duvelisib -0.012 | gandotinib -0.03 | tozasertib -0.029 | [4] -0.035 | doramapimod -0.095 | ispinesib 0.036 | bafetinib -0.079 | [5] -0.004 | nilotinib -0.012 | [6] 0.003 | dasatinib 0.021 | [7] -0.032 | [8] -0.021 | [9] -0.045 | tipifarnib 0.01 | mubritinib 0.146

TLN1 (UniProt Q9Y490)
inactive: [1] -0.003 | crizotinib 0.019 | [2] 0.059 | [3] -0.009 | duvelisib 0.023 | gandotinib -0.08 | tozasertib 0.034 | [4] 0.053 | doramapimod -0.01 | ispinesib 0.037 | bafetinib 0.013 | [5] 0.018 | nilotinib -0.044 | [6] -0.026 | dasatinib -0.076 | [7] 0.026 | [8] 0.004 | [9] -0.01 | tipifarnib -0.108 | mubritinib 0.036

TMEM160 (UniProt Q9NX00)
inactive: [1] -0.065 | crizotinib -0.198 | [2] -0.074 | [3] 0.162 | duvelisib -0.053 | gandotinib 0.219 | tozasertib -0.064 | [4] -0.136 | doramapimod -0.066 | ispinesib 0.056 | bafetinib 0.061 | [5] -0.114 | nilotinib 0.002 | [6] 0.029 | dasatinib 0.038 | [7] 0.03 | [8] -0.113 | [9] 0.044 | tipifarnib 0.018 | mubritinib -0.087

TMEM30A (UniProt Q9NV96)
inactive: [1] 0.097 | crizotinib -0.08 | [2] 0.072 | [3] -0.053 | duvelisib 0.081 | gandotinib 0.019 | tozasertib 0.045 | [4] -0.002 | doramapimod 0.087 | ispinesib -0.012 | bafetinib -0.035 | [5] 0.024 | nilotinib 0.015 | [6] 0.046 | dasatinib -0.013 | [7] 0.013 | [8] 0.011 | [9] 0.013 | tipifarnib 0.025 | mubritinib -0.004

TMEM205 (UniProt Q6UW68)
inactive: [1] -0.047 | crizotinib 0.122 | [2] 0.201 | [3] -0.162 | duvelisib 0.063 | gandotinib 0.215 | tozasertib 0.046 | [4] -0.098 | doramapimod -0.12 | ispinesib 0.044 | bafetinib -0.162 | [5] 0.2 | nilotinib 0.331 | [6] -0.108 | dasatinib -0.139 | [7] -0.137 | [8] 0.054 | [9] 0.066 | tipifarnib 0.15 | mubritinib 0.116

TMED5 (UniProt Q9Y3A6)
inactive: [1] 0.006 | crizotinib -0.055 | [2] 0.038 | [3] 0.071 | duvelisib 0.054 | gandotinib -0.121 | tozasertib 0.01 | [4] 0.01 | doramapimod 0.032 | ispinesib -0.018 | bafetinib 0.004 | [5] -0.024 | nilotinib -0.051 | [6] 0.033 | dasatinib 0.034 | [7] 0.019 | [8] 0.029 | [9] 0.034 | tipifarnib -0.023 | mubritinib -0.035

Fetched one by one from above (two):
TMEM160 (UniProt Q9NX00)
inactive: [1] -0.065 | crizotinib -0.198 | [2] -0.074 | [3] 0.162 | duvelisib -0.053 | gandotinib 0.219 | tozasertib -0.064 | [4] -0.136 | doramapimod -0.066 | ispinesib 0.056 | bafetinib 0.061 | [5] -0.114 | nilotinib 0.002 | [6] 0.029 | dasatinib 0.038 | [7] 0.03 | [8] -0.113 | [9] 0.044 | tipifarnib 0.018 | mubritinib -0.087

TMED5 (UniProt Q9Y3A6)
inactive: [1] 0.006 | crizotinib -0.055 | [2] 0.038 | [3] 0.071 | duvelisib 0.054 | gandotinib -0.121 | tozasertib 0.01 | [4] 0.01 | doramapimod 0.032 | ispinesib -0.018 | bafetinib 0.004 | [5] -0.024 | nilotinib -0.051 | [6] 0.033 | dasatinib 0.034 | [7] 0.019 | [8] 0.029 | [9] 0.034 | tipifarnib -0.023 | mubritinib -0.035
